Laboratory results from patent US20150361139A1 (SANDOZ AG, priority 2013, published 2015).

Test: peptide synthesis
Conditions: purification step, acetate (starting material), no acetate counterion detected after crystallisation

CCEYCCNPACTGCY (cysteine pairing not given here)
final HPLC purity (run 1): 98.70%
final HPLC purity (run 2): 99%
step yield: 90%

Ends that are not written are not given here.
